The text below walks through data of patent US11140318B2, “Laser endoscope device” (Mie University, priority 2016, dated 2021).

The nature of this series: Solubility of curcumin in solvents replacing water (optimized solving method). It is filed as physicochemical. The method, then: First of all, even when a cell group can be stained, staining unevenness occurs, and it is therefore difficult to acquire an image of a uniformly stained living body. […] Curcumin, in particular, is solved by about 5% in a 100% glycerol liquid or a 50%-glycerol and 50%-ethanol mixture liquid. Therefore, the 5%-curcumin solution is diluted and used in the living body staining. Specifically, the 5% solution was stored as a stock liquid, and the stock liquid was diluted with a physiological saline solution by a factor ranging from 10 to 1000, and the resultant liquid was used to stain a living body. The optimized solving method allowed a high-definition cell image shown below to be obtained.

As for `COc1cc(/C=C/C(=O)CC(=O)/C=C/c2ccc(O)c(OC)c2)ccc1O` [curcumin dye, curcumin], the “amount solved (solubility)” value is reported as “about 5%” (in a 50%-glycerol and 50%-ethanol mixture liquid); “about 5%” (in a 100% glycerol liquid).
